Reference: PMC3985441
No constants are given. Whether binding was seen depends on the method and setting.

Sequences of proteins named here, by UniProt entry; tags and fusion partners are left off. A change or cut given only in a name is not applied to a line headed by its entry. A line that says so, or that is headed by a name, gives the form on record, which may keep a tag or linker.
UniProt P60953: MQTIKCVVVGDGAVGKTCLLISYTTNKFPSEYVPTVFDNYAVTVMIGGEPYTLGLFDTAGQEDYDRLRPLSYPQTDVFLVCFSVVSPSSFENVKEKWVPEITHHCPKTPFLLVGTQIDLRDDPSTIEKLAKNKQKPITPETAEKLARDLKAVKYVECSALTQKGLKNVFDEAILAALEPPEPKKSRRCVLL
GST-V12 Cdc42 (constitutively active Cdc42Hs) (P60953, form named): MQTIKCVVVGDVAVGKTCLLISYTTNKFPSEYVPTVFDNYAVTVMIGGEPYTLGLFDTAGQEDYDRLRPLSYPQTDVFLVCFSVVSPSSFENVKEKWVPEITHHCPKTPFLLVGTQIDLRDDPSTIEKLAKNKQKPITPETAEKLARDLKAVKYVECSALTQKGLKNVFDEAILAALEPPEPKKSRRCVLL

Molecular target: GST-V12 Cdc42 (constitutively active Cdc42Hs) (human) (UniProt P60953)
Assay: pull-down; GST fusion proteins (1 μg) on glutathione agarose, PI3Kα complexes (100–3200 ng) in solution; TBS with 10% (v/v) FBS, 1 h at 4°C; washes in TBS with 0.1% Tween 20; bound PI3Kα detected by immunoblot for p85α; both purified

For “p110αEE^H1047R/p85α complex (H1047R oncogenic mutant PI3Kα) (from UniProt P42336 1-1068; P27986 1-724)”, the binding was “no binding (tested: 100–3200 ng PI3Kα (methods))”.

With “p110αEE^WT/p85α complex (wild-type PI3Kα) (from UniProt P42336 1-1068; P27986 1-724)” the binding was “no binding (tested: 100–3200 ng PI3Kα (methods))”.
